Results on 40 sequences are retold here after article PMC7862700.

The list shows a part of the results. The source does not settle which construct or isoform was used.

For this assay, the target named is T1, ETS1 (UniProt P14921).
T1 sequence: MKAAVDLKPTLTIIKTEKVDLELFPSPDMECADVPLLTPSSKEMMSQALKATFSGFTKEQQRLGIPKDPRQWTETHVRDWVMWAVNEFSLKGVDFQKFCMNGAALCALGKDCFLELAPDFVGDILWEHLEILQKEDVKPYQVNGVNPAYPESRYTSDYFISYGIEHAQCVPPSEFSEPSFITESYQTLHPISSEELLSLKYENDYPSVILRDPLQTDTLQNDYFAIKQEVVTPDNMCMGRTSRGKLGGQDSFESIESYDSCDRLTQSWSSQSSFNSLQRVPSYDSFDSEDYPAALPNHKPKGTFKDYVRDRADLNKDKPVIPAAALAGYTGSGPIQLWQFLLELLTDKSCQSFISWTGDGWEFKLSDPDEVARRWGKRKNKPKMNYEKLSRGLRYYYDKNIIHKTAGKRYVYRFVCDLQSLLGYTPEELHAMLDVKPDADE
Description: DAPPL (digital affinity profiling via proximity ligation, sequencing). Particulars: 10 mM Tris-HCl pH 7.5, 50 mM NaCl, 1 mM DTT, 4% glycerol, room temperature, 30 min; GST-TFs on glutathione beads, 16-mer random dsDNA library, 0.1% …; high values mean tight binding; double strand, one strand shown; scale: fold enrichment (6-mer frequency, TF over GST control).
Regarding TTTCCA, the binding signal worked out at 1.4. With TACACA, the binding signal was determined as 1.25. To GGTCTC belongs 2.96; to CAATTT, 1.39; to CCACCT, 1.1. To TGGATA belongs 1.14; to ATTCAA, 1.46. To TGAATG belongs 1.38. TATAGC: the binding signal was found to be 1.17.

In turn, GCCCGG yielded a binding signal of 0.932.

For TGCACC, the binding signal stood at 1.17. With CCACCA, the binding signal worked out at 1.03. In turn, TTCAAC registered a binding signal of 1.26. Consider AAACTT, for which the binding signal turned out to be 1.31. To TATAGG belongs 1.17; to GGATTT, 1.23. The result for ATTAGT reads 1.04; that for ATTGTT, 1.38; that for CATGTT, 1.03. The result for CATTCG reads 1.25. In turn, GTCCTT returned a binding signal of 1.3. The result for TAGACA reads 0.935; that for CTATGG, 1.26; that for TAGTTC, 1.36. TCTATG came in with a binding signal of 1.14. The result for CGATGG reads 1.38; that for GATACC, 0.869; that for TAACTG, 1.25.

For CAGCCC, the binding signal was 1.17.

For the sequence CATACG, the binding signal stood at 1.05. On to AAACAA, for which the binding signal was determined as 1.29. To AAGGTT belongs 1.08; to CAACCG, 1.08. To CTTTGC belongs 1.34; to GTTGAC, 1.09.

The sequence ATATTT yielded a binding signal of 1.5. Turning to GTGTTC, the binding signal turned out to be 1.06. ACGACA: the binding signal came out at 1.19. The result for CATCAC reads 1.2. To CTCGGT belongs 1.06.
